# Experimental data published in the supplement of paper PMC6411743.
# The chains behind the UniProt entries cited, without tags or fusion partners. Where a name states a change or a piece, a line headed by the entry shows the natural chain unless it says otherwise.
# UniProt Q9UBW5: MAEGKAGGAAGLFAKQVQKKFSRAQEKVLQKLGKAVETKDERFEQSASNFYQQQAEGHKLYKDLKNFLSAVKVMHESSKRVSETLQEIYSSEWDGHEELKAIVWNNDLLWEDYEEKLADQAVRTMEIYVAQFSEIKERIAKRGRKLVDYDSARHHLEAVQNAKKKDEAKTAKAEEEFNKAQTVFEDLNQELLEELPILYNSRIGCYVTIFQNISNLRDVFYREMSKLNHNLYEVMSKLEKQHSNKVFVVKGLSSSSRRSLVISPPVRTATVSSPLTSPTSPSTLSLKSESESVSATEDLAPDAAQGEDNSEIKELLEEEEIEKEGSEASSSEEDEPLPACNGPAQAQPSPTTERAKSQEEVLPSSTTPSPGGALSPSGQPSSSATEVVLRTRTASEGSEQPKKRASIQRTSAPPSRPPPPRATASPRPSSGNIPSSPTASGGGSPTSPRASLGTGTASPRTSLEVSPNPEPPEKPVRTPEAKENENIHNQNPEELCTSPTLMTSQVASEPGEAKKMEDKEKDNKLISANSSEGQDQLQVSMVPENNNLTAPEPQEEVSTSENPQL
# UniProt Q7Z478: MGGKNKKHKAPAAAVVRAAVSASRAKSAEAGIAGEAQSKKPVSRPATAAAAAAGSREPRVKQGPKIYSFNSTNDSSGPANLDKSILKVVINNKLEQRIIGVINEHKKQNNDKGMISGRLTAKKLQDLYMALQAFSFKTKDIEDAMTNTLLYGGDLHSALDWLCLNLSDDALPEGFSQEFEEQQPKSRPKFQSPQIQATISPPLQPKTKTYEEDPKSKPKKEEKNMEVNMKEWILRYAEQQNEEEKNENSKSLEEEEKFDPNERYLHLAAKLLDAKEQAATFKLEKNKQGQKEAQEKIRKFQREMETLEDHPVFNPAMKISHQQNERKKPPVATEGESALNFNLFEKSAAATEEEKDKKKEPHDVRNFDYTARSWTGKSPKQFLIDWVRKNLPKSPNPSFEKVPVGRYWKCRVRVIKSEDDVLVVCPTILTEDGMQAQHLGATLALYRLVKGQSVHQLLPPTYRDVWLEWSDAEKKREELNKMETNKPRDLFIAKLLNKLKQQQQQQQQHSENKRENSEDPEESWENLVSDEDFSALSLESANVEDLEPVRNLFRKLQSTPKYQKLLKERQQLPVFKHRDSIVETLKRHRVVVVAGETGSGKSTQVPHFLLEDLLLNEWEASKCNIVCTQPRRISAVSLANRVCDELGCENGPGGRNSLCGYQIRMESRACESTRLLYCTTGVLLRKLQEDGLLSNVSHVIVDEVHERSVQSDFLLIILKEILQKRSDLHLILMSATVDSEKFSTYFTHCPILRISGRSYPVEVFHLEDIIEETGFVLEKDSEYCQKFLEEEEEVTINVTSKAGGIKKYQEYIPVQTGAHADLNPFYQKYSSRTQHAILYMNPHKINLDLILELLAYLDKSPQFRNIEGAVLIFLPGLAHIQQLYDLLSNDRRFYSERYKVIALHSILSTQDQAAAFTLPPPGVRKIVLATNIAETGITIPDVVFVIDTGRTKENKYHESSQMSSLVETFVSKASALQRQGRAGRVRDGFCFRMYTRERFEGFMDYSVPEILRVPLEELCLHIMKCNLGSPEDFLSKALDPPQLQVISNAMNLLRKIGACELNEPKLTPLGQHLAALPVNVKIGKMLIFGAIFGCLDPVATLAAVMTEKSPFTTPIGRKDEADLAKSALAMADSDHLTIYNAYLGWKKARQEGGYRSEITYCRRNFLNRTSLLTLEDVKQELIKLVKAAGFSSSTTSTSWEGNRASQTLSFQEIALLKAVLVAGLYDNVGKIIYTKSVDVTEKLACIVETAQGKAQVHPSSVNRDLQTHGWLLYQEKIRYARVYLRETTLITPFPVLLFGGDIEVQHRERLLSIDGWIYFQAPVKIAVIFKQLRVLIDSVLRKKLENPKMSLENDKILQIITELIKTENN
# UniProt Q9UBF8: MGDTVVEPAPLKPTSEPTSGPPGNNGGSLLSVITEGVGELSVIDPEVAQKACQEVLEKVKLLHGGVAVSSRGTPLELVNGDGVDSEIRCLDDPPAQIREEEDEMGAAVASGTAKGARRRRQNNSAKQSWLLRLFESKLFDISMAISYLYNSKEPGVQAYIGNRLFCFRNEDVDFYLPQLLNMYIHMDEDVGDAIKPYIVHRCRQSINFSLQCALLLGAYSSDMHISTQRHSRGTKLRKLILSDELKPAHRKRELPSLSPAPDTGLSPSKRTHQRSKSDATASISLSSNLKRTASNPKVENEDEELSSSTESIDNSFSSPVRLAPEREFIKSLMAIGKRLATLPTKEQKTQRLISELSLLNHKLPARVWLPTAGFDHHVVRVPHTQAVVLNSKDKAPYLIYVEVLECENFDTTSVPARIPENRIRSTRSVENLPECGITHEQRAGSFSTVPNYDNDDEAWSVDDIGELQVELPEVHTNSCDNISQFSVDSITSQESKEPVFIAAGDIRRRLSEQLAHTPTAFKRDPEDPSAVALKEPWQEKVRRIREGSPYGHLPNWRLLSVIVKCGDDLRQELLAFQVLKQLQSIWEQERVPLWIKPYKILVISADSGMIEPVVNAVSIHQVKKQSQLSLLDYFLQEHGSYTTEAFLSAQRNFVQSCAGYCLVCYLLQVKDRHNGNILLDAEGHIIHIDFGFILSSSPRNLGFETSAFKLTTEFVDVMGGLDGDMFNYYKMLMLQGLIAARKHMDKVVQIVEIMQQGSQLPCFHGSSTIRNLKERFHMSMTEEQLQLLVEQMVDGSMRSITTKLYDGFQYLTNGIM
# UniProt Q86VE9: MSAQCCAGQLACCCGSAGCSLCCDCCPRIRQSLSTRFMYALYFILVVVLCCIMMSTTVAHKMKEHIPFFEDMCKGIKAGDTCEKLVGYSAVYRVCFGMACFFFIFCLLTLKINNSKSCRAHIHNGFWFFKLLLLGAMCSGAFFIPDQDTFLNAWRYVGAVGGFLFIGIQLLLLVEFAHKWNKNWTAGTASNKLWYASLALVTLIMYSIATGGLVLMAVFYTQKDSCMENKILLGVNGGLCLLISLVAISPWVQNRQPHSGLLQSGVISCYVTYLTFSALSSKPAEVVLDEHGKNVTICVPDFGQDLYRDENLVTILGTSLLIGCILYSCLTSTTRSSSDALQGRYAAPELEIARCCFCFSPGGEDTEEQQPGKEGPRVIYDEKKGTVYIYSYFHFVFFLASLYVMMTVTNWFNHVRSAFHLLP
# UniProt A8MW92: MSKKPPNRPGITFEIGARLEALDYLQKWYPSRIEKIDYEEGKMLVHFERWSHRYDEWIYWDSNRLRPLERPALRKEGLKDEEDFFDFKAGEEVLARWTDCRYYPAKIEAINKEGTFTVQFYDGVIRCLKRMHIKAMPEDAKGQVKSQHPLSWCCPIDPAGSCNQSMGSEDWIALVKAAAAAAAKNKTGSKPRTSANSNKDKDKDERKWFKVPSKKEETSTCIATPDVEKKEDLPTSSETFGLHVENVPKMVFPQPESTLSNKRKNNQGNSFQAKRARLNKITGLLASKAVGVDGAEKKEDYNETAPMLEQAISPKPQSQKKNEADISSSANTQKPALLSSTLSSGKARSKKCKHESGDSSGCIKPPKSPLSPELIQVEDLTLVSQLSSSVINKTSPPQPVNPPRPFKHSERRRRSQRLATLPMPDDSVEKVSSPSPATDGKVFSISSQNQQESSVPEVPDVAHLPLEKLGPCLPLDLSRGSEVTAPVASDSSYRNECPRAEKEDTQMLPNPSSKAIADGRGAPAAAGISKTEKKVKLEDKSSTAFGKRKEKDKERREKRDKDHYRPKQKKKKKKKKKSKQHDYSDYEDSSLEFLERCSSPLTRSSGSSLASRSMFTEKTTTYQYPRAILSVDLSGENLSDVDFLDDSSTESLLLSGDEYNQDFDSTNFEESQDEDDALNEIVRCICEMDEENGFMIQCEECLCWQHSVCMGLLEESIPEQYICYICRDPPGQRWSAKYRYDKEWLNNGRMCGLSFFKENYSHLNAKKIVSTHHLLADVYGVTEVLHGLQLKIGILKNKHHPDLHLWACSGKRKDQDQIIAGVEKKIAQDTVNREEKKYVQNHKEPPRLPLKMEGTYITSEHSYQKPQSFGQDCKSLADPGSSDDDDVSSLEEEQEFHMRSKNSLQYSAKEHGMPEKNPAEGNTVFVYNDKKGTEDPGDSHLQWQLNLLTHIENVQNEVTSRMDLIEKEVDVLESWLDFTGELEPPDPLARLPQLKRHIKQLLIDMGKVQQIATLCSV
# UniProt P13693: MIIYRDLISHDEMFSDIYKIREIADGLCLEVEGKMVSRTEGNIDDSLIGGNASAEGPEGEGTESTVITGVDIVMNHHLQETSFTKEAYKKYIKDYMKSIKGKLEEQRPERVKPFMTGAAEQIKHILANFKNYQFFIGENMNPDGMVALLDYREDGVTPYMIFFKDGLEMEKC
# UniProt P61077: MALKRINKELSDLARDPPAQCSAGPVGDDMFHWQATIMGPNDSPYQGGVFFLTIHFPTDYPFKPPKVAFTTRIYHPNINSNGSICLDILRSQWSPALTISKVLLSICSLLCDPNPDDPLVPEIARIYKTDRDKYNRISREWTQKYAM
# UniProt Q96JP5: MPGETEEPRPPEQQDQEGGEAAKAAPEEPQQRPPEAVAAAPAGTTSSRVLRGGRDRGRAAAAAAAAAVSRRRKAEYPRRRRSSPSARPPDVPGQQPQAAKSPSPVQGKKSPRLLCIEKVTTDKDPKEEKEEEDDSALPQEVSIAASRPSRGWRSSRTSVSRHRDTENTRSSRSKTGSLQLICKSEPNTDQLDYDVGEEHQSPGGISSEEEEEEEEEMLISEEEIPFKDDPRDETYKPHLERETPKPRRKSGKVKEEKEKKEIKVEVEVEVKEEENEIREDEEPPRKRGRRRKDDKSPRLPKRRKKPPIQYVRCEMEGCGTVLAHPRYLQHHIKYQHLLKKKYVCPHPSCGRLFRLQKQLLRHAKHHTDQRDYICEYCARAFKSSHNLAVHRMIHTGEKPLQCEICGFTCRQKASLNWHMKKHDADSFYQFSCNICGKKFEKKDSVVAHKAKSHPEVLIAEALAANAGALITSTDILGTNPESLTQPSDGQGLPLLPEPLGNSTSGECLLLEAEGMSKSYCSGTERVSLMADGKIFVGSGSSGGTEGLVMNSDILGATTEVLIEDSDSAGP
# ± gives the standard deviation of the averaged measurements. This is one part of the list.
# Compound: Nc1nc2c(ncn2[C@@H]2O[C@H](COP(=O)(O)OP(=O)(O)OP(=O)(O)O)[C@@H](O)[C@H]2O)c(=O)[nH]1 [guanosine triphosphate]
# Assay: NP40-soluble protein abundance relative to vehicle (solubility fold change) (ratio); higher = more soluble protein in presence of GTP
# How it was run: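 Jurkat crude lysate (Dounce-homogenised) was treated with eight concentrations from 0.1 to 10 mM for 10 min at room temperature, then 3 min at 37 °C. It was solubilised with 0.8% NP40 and benzonase (60 min, 4 °C) and ultracentrifuged, and the supernatant was TMT-labelled for LC-MS/MS. Intensities were vsn-normalised, and the value is the fold change against the NP40-processed vehicle per replicate, from three independent experiments.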
Target,NP40-soluble protein abundance (concentration: 0.1mM),NP40-soluble protein abundance (concentration: 0.5mM),NP40-soluble protein abundance (concentration: 1mM),NP40-soluble protein abundance (concentration: 2mM),NP40-soluble protein abundance (concentration: 4mM),NP40-soluble protein abundance (concentration: 6mM),NP40-soluble protein abundance (concentration: 8mM),NP40-soluble protein abundance (concentration: 10mM)
A0A087X188|Q9UBW5 (UniProt Q9UBW5),0.885 ± 0.11,0.932 ± 0.13,0.887 ± 0.12,0.899 ± 0.15,0.86 ± 0.12,0.88 ± 0.12,0.853 ± 0.094,0.934 ± 0.13
A0A087WYN9|Q7Z478 (UniProt Q7Z478),1.34 ± 0.086,1.69 ± 0.26,1.66 ± 0.28,1.77 ± 0.29,1.8 ± 0.23,1.84 ± 0.27,1.86 ± 0.27,1.86 ± 0.19
A0A0B4J1S8|Q9UBF8 and related entries (UniProt Q9UBF8),1.05 ± 0.054,1.01 ± 0.092,1.02 ± 0.049,0.993 ± 0.11,0.968 ± 0.033,0.969 ± 0.039,0.964 ± 0.011,0.92 ± 0.032
A0A0A0MTB0|A0A0J9YYI4|D6RHG7 and related entries (UniProt Q86VE9),1.03 ± 0.092,0.988 ± 0.11,0.989 ± 0.026,0.962 ± 0.054,0.933 ± 0.028,0.922 ± 0.039,0.926 ± 0.014,0.924 ± 0.021
A0A0A0MQS0|A8MW92 and related entries (UniProt A8MW92),0.989 ± 0.079,1.03 ± 0.028,1.15 ± 0.082,1.24 ± 0.015,1.37 ± 0.021,1.51 ± 0.036,1.49 ± 0.15,1.58 ± 0.13
A0A0B4J2C3|P13693 and related entries (UniProt P13693),0.938 ± 0.073,0.961 ± 0.039,0.928 ± 0.067,0.905 ± 0.035,0.882 ± 0.074,0.905 ± 0.047,0.864 ± 0.086,0.871 ± 0.062
A0A0A0MTH9|O14981 (UniProt O14981),1.01 ± 0.039,1.01 ± 0.04,0.96 ± 0.025,0.985 ± 0.021,0.984 ± 0.027,0.9311 ± 0.005,0.97 ± 0.024,0.935 ± 0.015
A0A087WY85|P61077 and related entries (UniProt P61077),1 ± 0.083,0.965 ± 0.054,0.874 ± 0.044,0.888 ± 0.087,0.876 ± 0.064,0.828 ± 0.033,0.795 ± 0.086,0.804 ± 0.087
A0A0C4DFX4|Q6ZRS2 and related entries (UniProt Q6ZRS2),1.12 ± 0.075,1.11 ± 0.013,1.3 ± 0.042,1.44 ± 0.17,1.6 ± 0.21,1.62 ± 0.17,1.86 ± 0.33,1.83 ± 0.29
A0A0A6YYD5|A0A0B4J2E0|A0A5A8 and related entries (UniProt P01733+A0A5A8),1.07 ± 0.072,1.04 ± 0.029,1.06 ± 0.042,1.03 ± 0.023,1.05 ± 0.072,1.05 ± 0.068,1.11 ± 0.054,1.01 ± 0.045
A0A0A6YYC7|Q96JP5 and related entries (UniProt Q96JP5),0.94 ± 0.06,0.891 ± 0.068,0.975 ± 0.098,0.956 ± 0.058,0.904 ± 0.087,0.962 ± 0.065,0.913 ± 0.024,0.965 ± 0.036

# Quoted from the results shown (two entries):
Target,NP40-soluble protein abundance (concentration: 0.1mM),NP40-soluble protein abundance (concentration: 0.5mM),NP40-soluble protein abundance (concentration: 1mM),NP40-soluble protein abundance (concentration: 2mM),NP40-soluble protein abundance (concentration: 4mM),NP40-soluble protein abundance (concentration: 6mM),NP40-soluble protein abundance (concentration: 8mM),NP40-soluble protein abundance (concentration: 10mM)
A0A087X188|Q9UBW5 (UniProt Q9UBW5),0.885 ± 0.11,0.932 ± 0.13,0.887 ± 0.12,0.899 ± 0.15,0.86 ± 0.12,0.88 ± 0.12,0.853 ± 0.094,0.934 ± 0.13
A0A087WYN9|Q7Z478 (UniProt Q7Z478),1.34 ± 0.086,1.69 ± 0.26,1.66 ± 0.28,1.77 ± 0.29,1.8 ± 0.23,1.84 ± 0.27,1.86 ± 0.27,1.86 ± 0.19
